Source: PMC6546705
No constants are given. Whether binding was seen depends on the method and setting. Binding seen in cells or lysates may run through a third protein. Some entries that bind do so weakly or less than the wild type.

Target: MnSOD^K68R (deacetylation mimic, human, lentiviral expression) (human) (UniProt P04179)
Test: cross-linking; cell lysates treated with 0.1% glutaraldehyde for 10 min at room temperature, SDS-PAGE (semi-native gel), immunoblot with anti-MnSOD; MCF7, T47D and MnSOD-/- MEFs; also cells with shSIRT3 or selected for hydroxy-Tam resistance

B1: MnSOD^K68R (deacetylation mimic, human, lentiviral expression) (enzyme, UniProt P04179 25-222)
chain: KHSLPDLPYDYGALEPHINAQIMQLHHSKHHAAYVNNLNVTEERYQEALAKGDVTAQIALQPALKFNGGGHINHSIFWTNLSPNGGGEPKGELLEAIKRDFGSFDKFKEKLTAASVGVQGSGWGWLGFNKERGHLQIAACPNQDPLQGTTGLIPLLGIDVWEHAYYLQYKNVRPDYLKAIWNVINWENVTERYMACKK
In the case of B1, the binding is reported as “binds”.
